Reference: patent publication US9309288B2 (ADVANCED ACCELERATOR APPLICATIONS, priority 2005, dated 2016)

Test: general procedure: Fmoc solid-phase peptide synthesis; Novasyn TGA resin (substitution 0.29 mmol g^-1); HBTU/HOBt/DIPEA; cyclization with PyBop/HOBt/DIPEA
Conditions: whole synthesis, overall, scale of the general procedure 0.25 mmol

Substance | isolated yield [%]
SEQ ID NO: 3 (RNPHKGPAT) | 58
SEQ ID NO: 2 (MDDPGRNPHKGPAT) | 54
